Measurements taken from the supplement of paper PMC12889115.
This is one part of the list. Values are raw readings; no control value is given beside them.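 Primary screen: polymyxin B was added at a level permeabilizing Salmonella outer membranes while sparing inner membranes. DMSO wells, both with and without polymyxin B, established maximum growth. Plate-to-plate variation meant each plate was ranked on its own, and the lowest-OD600 compounds were selected as hits.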

Tested on: Salmonella enterica serovar Typhimurium SL1344
Experiment: bacterial growth OD600 after 18 h with compound and polymyxin B; higher = more bacterial growth (less inhibition)
Settings: 50 µM, Mueller-Hinton broth

COc1ccc(OCC(O)CN2CCC(O)CC2)c(CN(C)C2CCCCC2)c1 (centres undefined)
bacterial growth OD600 (polymyxin B 1 µg/mL): 0.926

CCn1nc(C)c(CNC2CCN(c3ccc(NC(=O)Cc4ccc(OC)cc4)cc3)CC2)c1C
bacterial growth OD600 (polymyxin B 0.75 µg/mL): 0.92

CCn1ccnc1CN(C)CC1CCCN(CCc2ccc(OC)cc2)C1 (centres undefined)
bacterial growth OD600 (polymyxin B 0.75 µg/mL): 0.782

Cc1nccn1-c1ccc(NC(=O)C2CCCN(C/C=C/c3ccco3)C2)cc1 (centres undefined)
bacterial growth OD600 (polymyxin B 0.75 µg/mL): 0.836

CC(C)CN1CCC(C2CCN(S(=O)(=O)Cc3ccccc3)C2)CC1 (centres undefined)
bacterial growth OD600 (polymyxin B 0.75 µg/mL): 0.809

C=CCN(CC=C)Cc1nc(-c2ccc(OCC)cc2)oc1C
bacterial growth OD600 (polymyxin B 0.75 µg/mL): 0.748

CC1CCCCN1C(=O)c1ccc(OC2CCN(C(=O)C3CC3)CC2)cc1 (centres undefined)
bacterial growth OD600 (polymyxin B 1 µg/mL): 0.857

COc1ccc(CCN(C)C(=O)COc2ccc(N3CCN(c4ccccn4)CC3)nn2)cc1OC
bacterial growth OD600 (polymyxin B 0.75 µg/mL): 0.993

CC(C)n1cc(C(=O)NCC2CCCCC2)c(=O)c(C(=O)N2CCSCC2)c1
bacterial growth OD600 (polymyxin B 0.75 µg/mL): 0.928

COc1cc(CC2(CCC(=O)NCCc3nc4cc(Cl)ccc4[nH]3)CCC(=O)N2)ccc1F (centres undefined)
bacterial growth OD600 (polymyxin B 0.75 µg/mL): 0.772

OC(c1ccc2c(c1)CN(Cc1ccc3c(c1)OCCO3)CCO2)c1c(F)cccc1Cl (centres undefined)
bacterial growth OD600 (polymyxin B 0.75 µg/mL): 0.622

COc1ccc(C2c3[nH]c4ccccc4c3CCN2C(=O)c2cc(C(C)=O)n[nH]2)c(F)c1 (centres undefined)
bacterial growth OD600 (polymyxin B 1 µg/mL): 0.57

CCOc1ccc(CN2CCOc3ccc(CN4CCC(O)(c5cccnc5)CC4)cc3C2)cc1
bacterial growth OD600 (polymyxin B 0.75 µg/mL): 1.01

COc1ccc(CCNC(=O)CCC2(Cc3ccc(Cl)cc3)CCC(=O)N2)cc1OC (centres undefined)
bacterial growth OD600 (polymyxin B 0.75 µg/mL): 0.881

COCC1CCCN(C(=O)C2CCCN(c3nc(C)c4ccc(OC)cc4n3)C2)C1 (centres undefined)
bacterial growth OD600 (polymyxin B 0.75 µg/mL): 0.704

COc1ccccc1-c1cn2c(C(=O)NC3CCOC(C)(C)C3)csc2n1 (centres undefined)
bacterial growth OD600 (polymyxin B 1 µg/mL): 1.33

COc1cccc(OCc2nc(C(=O)N(C)C3CCCCC3)co2)c1
bacterial growth OD600 (polymyxin B 1 µg/mL): 0.916

O=C(Cc1cccnc1)N1CCC(C2CCN(c3ncccn3)CC2)C1 (centres undefined)
bacterial growth OD600 (polymyxin B 1 µg/mL): 0.897

COc1ccc(OC)c(Cc2nnc(CCC(=O)NC3C4CC5CC(C4)CC3C5)o2)c1 (centres undefined)
bacterial growth OD600 (polymyxin B 1 µg/mL): 0.78

COCCN1CCCC2(CCN(C(=O)c3ccc(Cl)s3)C2)C1=O (centres undefined)
bacterial growth OD600 (polymyxin B 1 µg/mL): 0.852

CCS(=O)(=O)c1ncc(CN2CCCC(c3cccc(C)c3)C2)n1CCOC (centres undefined)
bacterial growth OD600 (polymyxin B 1 µg/mL): 1.08

COc1cc(OC)c(OC)cc1CN1CCOc2ccc(C(O)CCc3ccccc3)cc2C1 (centres undefined)
bacterial growth OD600 (polymyxin B 0.75 µg/mL): 0.008

CCOC(=O)C1CCCCN1C(=O)CC1(c2cccc(C(F)(F)F)c2)CC(=O)N(C2CC2)C1=O (centres undefined)
bacterial growth OD600 (polymyxin B 0.75 µg/mL): 0.611

Cc1ccccc1-n1ncc(C(C)NC(=O)CSc2ncccn2)c1C (centres undefined)
bacterial growth OD600 (polymyxin B 1 µg/mL): 0.881

O=C(CC1(c2cccc(C(F)(F)F)c2)CC(=O)N(C2CC2)C1=O)N1CCCCC1c1nccs1 (centres undefined)
bacterial growth OD600 (polymyxin B 0.75 µg/mL): 0.676

CCCCN(C)C(=O)c1coc(COc2cccc(F)c2F)n1
bacterial growth OD600 (polymyxin B 1 µg/mL): 0.655

COc1ccc2cc(C(C)NC3CCN(c4ccc(C(=O)NCc5cccnc5)cc4)CC3)ccc2c1 (centres undefined)
bacterial growth OD600 (polymyxin B 0.75 µg/mL): 0.008

CCN1CCN(C2CCN(C(=O)C3CCN(c4nc(C)c5cc(C(C)C)ccc5n4)CC3)CC2)CC1
bacterial growth OD600 (polymyxin B 0.75 µg/mL): 0.784

CN(C)C(=O)CCC(=O)N1CCc2[nH]nc(-c3ccc(Cl)cc3)c2C1
bacterial growth OD600 (polymyxin B 0.75 µg/mL): 0.731
